Results reported in the supplement of paper PMC9549374.
The list shows a part of the results. Rule as the data show it: active = 2-fold of DMSO or more and inactive = the rest. Single values of this set are uncertain. Some low values are a fixed figure set by the source, not a measured ratio.

test system: CM7/1-hgem mouse ES cell-derived cardiomyocytes; experiment: maximal number of mAG-hGem(1/110)-positive cardiomyocytes over 96 h, fold-change vs DMSO; higher = more cardiomyocyte cell cycle activity; details: 1 µM; 96 (max over 12 h time points) h

SMILES	maximal number
CC1=CCc2c(cc3oc(C)cc(=O)c3c2O)OC1	inactive: 1
NCCCS(=O)(=O)O	inactive: 1
O=c1c(O)c(-c2ccccc2)oc2cc(O)ccc12	inactive: 1
COC1=CC(=O)C(C(=O)c2ccccc2)=CC1=O	inactive: 1
N#Cc1ccc(C(c2ccc(C#N)cc2)n2cncn2)cc1	inactive: 1
O=C(O)/C=C/C=C/c1ccccc1	inactive: 1
CC(=O)N(CC(O)CO)c1c(I)c(C(=O)NCCO)c(I)c(C(=O)NCC(O)CO)c1I (stereo not drawn)	inactive: 1
CC(C)=CC1C(C(=O)O)C1(C)C (stereo not drawn)	inactive: 1
O=C(O)c1ccccc1Nc1cccc(C(F)(F)F)c1	inactive: 1
CC[C@H](CC[C@@H](C)[C@H]1CC[C@H]2[C@@H]3CC=C4C[C@@H](O)CC[C@]4(C)[C@H]3CC[C@]12C)C(C)C [beta-SITOSTEROL]	inactive: 0.5
COc1ccc2c(c1)OCC(Cc1ccc(OC)c(OC(C)=O)c1)C2=O (stereo not drawn)	inactive: 1
COc1ccccc1-c1coc2cc(O)ccc2c1=O	inactive: 1
CC(=O)Nc1ccc(C(=O)O)cc1	active: 3
CCN1CCN(c2cc3c(cc2F)c(=O)c(C(=O)O)cn3C2CC2)CC1	inactive: 0
OCC(O)CN1CCN(c2ccccc2)CC1 (stereo not drawn)	inactive: 1
CCCCCCCCCCCCCCCCOP(=O)([O-])OCC[N+](C)(C)C	inactive: 1
COc1cc2c(cc1OC)[C@@H]1C(=O)c3ccc4c(c3O[C@@H]1CO2)C=CC(C)(C)O4	inactive: 0.5
O=C1c2ccccc2C(=O)C1c1ccc(C(F)(F)F)cc1	inactive: 1
COc1cc(/C=C/C(=O)O)ccc1O	active: 2

SMILES	maximal number
N[C@@H](CCC(=O)N[C@@H](CS)C(=O)NCC(=O)O)C(=O)O	active: 2
c1ccc2c(Cc3c[nH]c4ccccc34)c[nH]c2c1	inactive: 1
COc1ccc2c(c1)O[C@H]1c3ccc(OC)cc3OC[C@@H]21	inactive: 1
O=C(O)CCC(=O)c1ccc(-c2ccccc2)cc1	inactive: 0
CC(=O)Nc1ccc(CC(=O)O)cc1	inactive: 1
CC[n+]1c(-c2ccccc2)c2cc(N)ccc2c2ccc(N)cc21	inactive: 1
CC(C)CCC[C@@H](C)[C@H]1CC[C@H]2[C@@H]3CC=C4CC(=O)CC[C@]4(C)[C@H]3CC[C@]12C	inactive: 1
CC(=O)OCC(=O)[C@@]12OC3(CCCC3)O[C@@H]1C[C@H]1[C@@H]3CCC4=CC(=O)C=C[C@]4(C)[C@@]3(F)[C@@H](O)C[C@@]12C	inactive: 1
CC(=O)O[C@@H]1CC2C(C)(C)C(=O)C3OC3[C@]2(C)C2CC[C@@]3(C)[C@H](c4ccoc4)OC(=O)C4OC43[C@@]21C (stereo partly drawn)	inactive: 0.5
CCOC(=O)C1=C(C)NC(C)=C(C(=O)OC)C1c1cccc([N+](=O)[O-])c1 (stereo not drawn)	inactive: 1
COc1cc2cc3c4cc(OC)c(OC)cc4cc[n+]3c(C)c2cc1OC	inactive: 1
CC(S)C(=O)NCC(=O)O (stereo not drawn)	inactive: 1
CC1=CC(=O)[C@H]2C(C)(C)CCC[C@]2(C)[C@@]1(O)CCc1ccoc1	inactive: 1
CCCCCCCCCCOc1c(OC)cc(C(N)=O)cc1OC	inactive: 1
COc1cc(O)cc(OC)c1OC	inactive: 1
CC(=O)O[C@H]1C[C@@H](OC(C)=O)C(C)(C)C2CC(=O)[C@]3(C)C(CC[C@@]4(C)[C@H](C(=O)O)OC(=O)C5OC543)[C@]21C (stereo partly drawn)	inactive: 1
C=C(C)[C@@H]1CC[C@]2(C(=O)O)CC[C@]3(C)[C@H](CC[C@@H]4[C@@]5(C)CC[C@H](O)C(C)(C)[C@@H]5CC[C@]43C)[C@@H]12	inactive: 1
CC(C)c1c(O)ccc2c1CC[C@H]1C(C)(C)CCC[C@]21C	inactive: 1
CC(C)CCC[C@@H](C)[C@H]1CC[C@H]2[C@@H]3CC=C4C[C@@H](O)CC[C@]4(C)[C@H]3CC[C@]12C	inactive: 1

Compounds above containing a CF3 group:
SMILES	maximal number
O=C(O)c1ccccc1Nc1cccc(C(F)(F)F)c1	inactive: 1
O=C1c2ccccc2C(=O)C1c1ccc(C(F)(F)F)cc1	inactive: 1
